In article PMC5595435:
These are yes or no findings as the source states them, for the method shown. For some assays here: In cells and extracts the contact can be indirect. Some binding calls cover weakened binding; strength is not graded here.

Protein sequences, listed by entry. Tags and fused reporters are not part of them.
UniProt P51114: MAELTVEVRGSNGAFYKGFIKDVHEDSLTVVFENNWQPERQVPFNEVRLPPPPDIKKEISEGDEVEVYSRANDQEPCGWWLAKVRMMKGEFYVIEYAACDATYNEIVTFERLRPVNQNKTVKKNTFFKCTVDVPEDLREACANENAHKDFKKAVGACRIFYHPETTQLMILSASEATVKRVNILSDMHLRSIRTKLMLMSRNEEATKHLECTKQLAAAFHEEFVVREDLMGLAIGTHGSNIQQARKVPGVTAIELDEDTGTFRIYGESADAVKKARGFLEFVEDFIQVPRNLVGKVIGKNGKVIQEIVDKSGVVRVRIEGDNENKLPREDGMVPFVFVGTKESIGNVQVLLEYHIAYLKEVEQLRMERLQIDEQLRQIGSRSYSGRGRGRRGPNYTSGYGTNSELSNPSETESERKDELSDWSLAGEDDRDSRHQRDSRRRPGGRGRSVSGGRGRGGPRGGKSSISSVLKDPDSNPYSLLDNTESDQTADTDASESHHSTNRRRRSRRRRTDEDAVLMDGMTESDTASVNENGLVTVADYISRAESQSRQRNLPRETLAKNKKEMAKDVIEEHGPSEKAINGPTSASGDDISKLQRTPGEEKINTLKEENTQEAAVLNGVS
UniProt P40763: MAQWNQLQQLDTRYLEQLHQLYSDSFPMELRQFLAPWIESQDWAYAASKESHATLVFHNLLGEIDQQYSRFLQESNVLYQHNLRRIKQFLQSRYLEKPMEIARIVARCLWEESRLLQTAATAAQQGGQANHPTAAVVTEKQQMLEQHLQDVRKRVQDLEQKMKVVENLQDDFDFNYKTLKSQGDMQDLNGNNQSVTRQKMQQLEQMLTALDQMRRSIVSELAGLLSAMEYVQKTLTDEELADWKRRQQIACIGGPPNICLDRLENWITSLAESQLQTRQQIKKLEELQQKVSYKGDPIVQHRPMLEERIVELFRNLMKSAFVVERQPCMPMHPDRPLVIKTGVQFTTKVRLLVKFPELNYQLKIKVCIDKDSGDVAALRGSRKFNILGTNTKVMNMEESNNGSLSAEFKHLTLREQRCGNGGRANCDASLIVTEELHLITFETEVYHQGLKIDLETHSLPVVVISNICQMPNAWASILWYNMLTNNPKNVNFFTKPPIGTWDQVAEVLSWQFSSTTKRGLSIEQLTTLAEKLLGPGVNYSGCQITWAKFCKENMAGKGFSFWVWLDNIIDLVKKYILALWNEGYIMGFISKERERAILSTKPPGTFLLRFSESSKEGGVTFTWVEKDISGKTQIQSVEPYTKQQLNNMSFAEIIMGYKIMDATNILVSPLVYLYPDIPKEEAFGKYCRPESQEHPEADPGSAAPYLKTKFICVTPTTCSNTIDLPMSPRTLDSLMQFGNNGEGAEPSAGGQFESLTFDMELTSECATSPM
UniProt O60264: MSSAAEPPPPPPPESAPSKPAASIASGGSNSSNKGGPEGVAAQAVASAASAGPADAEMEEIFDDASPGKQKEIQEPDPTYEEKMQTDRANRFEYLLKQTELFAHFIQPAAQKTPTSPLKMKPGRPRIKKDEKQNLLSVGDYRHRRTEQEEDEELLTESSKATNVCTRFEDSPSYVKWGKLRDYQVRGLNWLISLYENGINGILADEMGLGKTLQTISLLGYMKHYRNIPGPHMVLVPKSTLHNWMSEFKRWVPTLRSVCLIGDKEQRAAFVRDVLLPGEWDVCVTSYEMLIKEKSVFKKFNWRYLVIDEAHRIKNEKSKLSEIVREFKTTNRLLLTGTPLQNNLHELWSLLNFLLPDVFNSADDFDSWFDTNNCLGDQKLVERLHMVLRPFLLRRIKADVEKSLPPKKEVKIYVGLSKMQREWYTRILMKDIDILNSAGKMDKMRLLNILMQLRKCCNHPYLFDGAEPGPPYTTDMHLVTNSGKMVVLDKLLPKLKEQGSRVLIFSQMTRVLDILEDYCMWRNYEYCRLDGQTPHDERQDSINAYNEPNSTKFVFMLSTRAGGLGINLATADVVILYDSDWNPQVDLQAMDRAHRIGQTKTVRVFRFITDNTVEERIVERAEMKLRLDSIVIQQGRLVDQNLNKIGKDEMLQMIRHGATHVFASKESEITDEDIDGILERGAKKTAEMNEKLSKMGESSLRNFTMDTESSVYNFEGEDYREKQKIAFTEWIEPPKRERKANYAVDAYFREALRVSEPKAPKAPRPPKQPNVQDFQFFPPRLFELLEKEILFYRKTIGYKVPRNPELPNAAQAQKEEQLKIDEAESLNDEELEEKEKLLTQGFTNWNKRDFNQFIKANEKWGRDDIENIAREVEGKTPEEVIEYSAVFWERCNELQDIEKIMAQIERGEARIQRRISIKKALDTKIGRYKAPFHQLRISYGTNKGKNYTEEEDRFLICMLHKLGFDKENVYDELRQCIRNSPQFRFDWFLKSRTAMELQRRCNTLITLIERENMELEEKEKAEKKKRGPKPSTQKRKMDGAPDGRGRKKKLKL
UniProt P42224: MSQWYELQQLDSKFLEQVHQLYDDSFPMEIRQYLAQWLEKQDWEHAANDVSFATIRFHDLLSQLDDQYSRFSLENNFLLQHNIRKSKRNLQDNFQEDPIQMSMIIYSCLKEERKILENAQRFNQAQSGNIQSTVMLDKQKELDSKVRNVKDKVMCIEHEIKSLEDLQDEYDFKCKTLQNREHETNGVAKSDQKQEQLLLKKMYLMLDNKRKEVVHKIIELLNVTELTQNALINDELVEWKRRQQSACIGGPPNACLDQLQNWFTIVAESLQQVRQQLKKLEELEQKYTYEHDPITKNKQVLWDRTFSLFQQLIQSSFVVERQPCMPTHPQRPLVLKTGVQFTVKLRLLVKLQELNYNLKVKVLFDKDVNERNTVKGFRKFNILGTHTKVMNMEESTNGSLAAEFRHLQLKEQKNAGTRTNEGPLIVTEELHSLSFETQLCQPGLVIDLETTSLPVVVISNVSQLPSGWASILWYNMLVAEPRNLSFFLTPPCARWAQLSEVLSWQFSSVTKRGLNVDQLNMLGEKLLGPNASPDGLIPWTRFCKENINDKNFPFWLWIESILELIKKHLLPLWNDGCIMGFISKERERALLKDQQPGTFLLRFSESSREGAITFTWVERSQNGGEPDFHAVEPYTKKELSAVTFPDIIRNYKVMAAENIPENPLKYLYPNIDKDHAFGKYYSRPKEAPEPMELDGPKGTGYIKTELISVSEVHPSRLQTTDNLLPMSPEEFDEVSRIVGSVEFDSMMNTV
UniProt Q14839: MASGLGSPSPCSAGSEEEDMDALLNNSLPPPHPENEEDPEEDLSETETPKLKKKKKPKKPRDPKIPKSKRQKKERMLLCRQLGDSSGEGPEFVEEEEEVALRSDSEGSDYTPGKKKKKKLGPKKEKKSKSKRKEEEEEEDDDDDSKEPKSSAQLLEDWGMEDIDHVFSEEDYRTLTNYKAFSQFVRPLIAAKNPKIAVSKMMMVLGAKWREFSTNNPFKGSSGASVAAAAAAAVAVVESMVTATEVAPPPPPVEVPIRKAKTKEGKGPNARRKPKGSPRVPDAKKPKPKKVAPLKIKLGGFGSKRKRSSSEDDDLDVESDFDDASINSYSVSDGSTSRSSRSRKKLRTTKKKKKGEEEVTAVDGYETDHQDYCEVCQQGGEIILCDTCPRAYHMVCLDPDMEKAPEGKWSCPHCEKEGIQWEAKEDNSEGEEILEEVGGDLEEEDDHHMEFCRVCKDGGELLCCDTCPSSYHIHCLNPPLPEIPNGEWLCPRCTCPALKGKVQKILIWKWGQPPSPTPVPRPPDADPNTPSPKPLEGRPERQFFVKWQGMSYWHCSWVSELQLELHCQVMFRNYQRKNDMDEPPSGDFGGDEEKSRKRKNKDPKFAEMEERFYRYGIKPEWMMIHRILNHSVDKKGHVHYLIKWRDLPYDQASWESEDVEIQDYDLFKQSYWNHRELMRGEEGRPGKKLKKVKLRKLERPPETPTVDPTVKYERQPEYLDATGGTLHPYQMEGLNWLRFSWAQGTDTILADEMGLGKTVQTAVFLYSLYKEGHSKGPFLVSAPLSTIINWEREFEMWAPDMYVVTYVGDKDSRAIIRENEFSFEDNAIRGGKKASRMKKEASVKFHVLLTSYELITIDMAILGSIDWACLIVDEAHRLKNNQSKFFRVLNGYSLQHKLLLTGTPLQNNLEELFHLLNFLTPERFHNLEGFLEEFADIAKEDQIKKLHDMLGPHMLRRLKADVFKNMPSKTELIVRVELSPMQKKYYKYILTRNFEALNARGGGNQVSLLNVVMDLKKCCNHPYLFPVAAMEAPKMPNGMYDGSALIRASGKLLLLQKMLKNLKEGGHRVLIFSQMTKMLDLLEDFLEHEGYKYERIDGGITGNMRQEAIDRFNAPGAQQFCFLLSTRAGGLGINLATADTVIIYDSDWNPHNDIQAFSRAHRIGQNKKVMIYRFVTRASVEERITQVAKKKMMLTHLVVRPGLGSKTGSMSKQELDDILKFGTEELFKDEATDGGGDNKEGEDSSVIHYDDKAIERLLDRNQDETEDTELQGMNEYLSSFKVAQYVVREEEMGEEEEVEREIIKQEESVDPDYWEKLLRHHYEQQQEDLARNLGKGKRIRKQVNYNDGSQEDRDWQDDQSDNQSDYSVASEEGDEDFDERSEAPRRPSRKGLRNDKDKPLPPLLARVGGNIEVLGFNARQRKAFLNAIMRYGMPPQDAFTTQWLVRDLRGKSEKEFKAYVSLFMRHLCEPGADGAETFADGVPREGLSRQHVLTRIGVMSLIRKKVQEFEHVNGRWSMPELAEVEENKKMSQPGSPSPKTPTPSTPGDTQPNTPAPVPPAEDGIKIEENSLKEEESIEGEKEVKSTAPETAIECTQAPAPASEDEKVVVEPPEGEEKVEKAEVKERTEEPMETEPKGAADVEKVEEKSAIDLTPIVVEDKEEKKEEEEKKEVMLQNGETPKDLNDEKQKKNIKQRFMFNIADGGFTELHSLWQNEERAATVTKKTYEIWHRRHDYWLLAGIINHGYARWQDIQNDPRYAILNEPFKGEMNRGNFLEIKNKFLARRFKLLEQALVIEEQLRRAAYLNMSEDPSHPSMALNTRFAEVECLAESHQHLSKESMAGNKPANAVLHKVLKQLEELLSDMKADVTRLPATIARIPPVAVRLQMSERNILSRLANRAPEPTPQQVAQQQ

What was measured:
[1] = molecular target: FXR1 (Fragile X-related Protein 1), endogenous (human (endogenous in H358 and KATOIII)) (UniProt P51114); assay: co-IP; ChIP-WB: formaldehyde cross-linked, micrococcal nuclease digested single-nucleosome lysate of H358 cells; anti-FXR1 antibody, Protein G magnetic beads; eluted proteins analysed by WB
[2] = molecular target: Flag-tagged-FXR1 (full-length isoform a) (UniProt P51114); assay: pull-down; 25 µl purified Flag-tagged-FXR1 with 75 µl purified HA-tagged-STAT1 or -STAT3 in binding buffer (50 mM Tris pH 7.5, 150 mM NaCl, 0.1% NP-40, 1 mM DTT), 4°C overnight; Flag or HA magnetic beads; wash with 300 mM NaCl; WB; both purified

Row | Substance | binding [1] | binding [2]
1 | HA-tagged-STAT3 (from UniProt P40763 1-770) |  | binds
2 | SNF2H (from UniProt O60264 1-1052) | binds | 
3 | STAT1, endogenous (from UniProt P42224 1-750) | binds | 
4 | phosphorylated STAT1, endogenous (from UniProt P42224 1-750) | binds | 

Now from value to substance:

Row | binding [1] | binding [2] | Substance
5 | binds |  | CHD4 (from UniProt Q14839 1-1912)
6 |  | binds | HA-tagged-STAT1 (from UniProt P42224 1-750)
7 | binds |  | STAT3, endogenous (from UniProt P40763 1-770)
8 | binds |  | phosphorylated STAT3, endogenous (from UniProt P40763 1-770)
